Reference: PubChem BioAssay AID1671190 (National Center for Advancing Translational Sciences (NCATS), 2021)
Out of some 580,000 compounds screened, about 6,100 (1.1%) were called active. This list was built around the results that the source calls inconclusive (neither active nor inactive); the mix of calls is not that of the screen. The call rests on the fitted dose curve; in most records, active means well fitted inhibition curve with a large enough effect; inconclusive means small, poorly fitted or top-dose-only effect, or another doubt; inactive means no such curve, though single readings can be large or run the other way. Potencies of inconclusive entries are doubtful fits and often do not repeat.

Protein sequences, listed by entry. Tags and fused reporters are not part of them. Lines headed by an entry give the natural chain unless they say otherwise; changes in a name come on top.
UniProt P18054: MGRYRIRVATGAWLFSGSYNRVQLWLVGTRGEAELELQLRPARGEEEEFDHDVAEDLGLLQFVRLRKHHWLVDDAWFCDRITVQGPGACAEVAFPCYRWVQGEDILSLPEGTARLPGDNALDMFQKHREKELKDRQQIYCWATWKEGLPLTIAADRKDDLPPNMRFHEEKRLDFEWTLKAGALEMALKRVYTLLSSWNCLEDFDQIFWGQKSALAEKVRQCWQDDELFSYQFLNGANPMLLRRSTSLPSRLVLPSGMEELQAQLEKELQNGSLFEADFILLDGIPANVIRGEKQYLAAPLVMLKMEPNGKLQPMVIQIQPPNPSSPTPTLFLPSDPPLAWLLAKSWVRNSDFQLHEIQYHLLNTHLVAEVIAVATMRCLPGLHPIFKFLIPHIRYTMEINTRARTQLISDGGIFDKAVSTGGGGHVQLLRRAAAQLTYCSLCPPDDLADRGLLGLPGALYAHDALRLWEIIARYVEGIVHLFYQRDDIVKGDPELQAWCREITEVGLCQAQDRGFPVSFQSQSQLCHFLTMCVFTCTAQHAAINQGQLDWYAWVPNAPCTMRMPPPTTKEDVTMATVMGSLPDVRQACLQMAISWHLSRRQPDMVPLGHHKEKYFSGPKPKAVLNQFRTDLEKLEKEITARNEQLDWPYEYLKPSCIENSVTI

biological target: Polyunsaturated fatty acid lipoxygenase ALOX12 (Homo sapiens) (UniProt P18054); assay: Primary qHTS assay for inhibitors of human arachidonate 12S-lipoxygenase (ALOX12): Round 2; details: purified 12hLO, xylenol orange hydroperoxide absorbance; activity change, negative = inhibition: at 108 µM (top of the series) unless noted
Outline: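 Purified human 12hLO at 150 nM in 25 mM Hepes, 0.01% Triton X-100, pH 7.0, preincubated 15 min at room temperature with compound. Reaction started with 40 uM arachidonic acid, 30 min at room temperature. Hydroperoxide measured by Fe-xylenol orange, 573/405 nm absorbance ratio.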
On the % scale 0 is the no-effect control and ±100 the full control effect; potency means the concentration at half of the fitted maximal effect.

| SMILES | Potency | activity change, negative = inhibition |
| --- | --- | --- |
| O=C1OC(c2ccc(Br)o2)=N/C1=C/c1cc(Br)cs1 | inconclusive: 50.1 µM [inhibitor, partial curve, poor fit] | – |
| CCCN1C(=O)C(NC(C)=O)c2ccccc21 (stereo not given) | inconclusive: 112 µM [inhibitor, single point] | – |
| Cc1ccc([C@@H]2c3c(C)nn(-c4ccccc4)c3NC(=O)[C@H]2NC(=O)c2cccc(C)c2)cc1 | inconclusive: 17.8 µM [inhibitor, full curve] | – |
| COc1ccc2c(c1)CNC2CS(=O)(=O)NC1CCCC1 (stereo not given) | inconclusive: 4.47 µM [inhibitor, full curve, poor fit] | – |
| Cc1nc(C)c(C(=O)N2CCC(Cc3noc(-c4ccccc4)n3)C2)s1 (stereo not given) | – | inactive: 90.7% |
| Cc1cccc(C=NNc2cc(C)c3cccc(C)c3n2)n1 | inconclusive: 100 µM [inhibitor, single point] | – |
| O=C(O)[C@H]1CCCC[C@H]1C(=O)Nc1ccc(Nc2ccccc2)cc1 | – | inactive: 0% |
| CCN1C(=O)C(Cc2nc3ccccc3c(=O)n2-c2ccccc2)c2cc(Br)ccc21 (stereo not given) | inconclusive: 5.62 µM [inhibitor, full curve, poor fit] | – |
| Cc1ccc(S(=O)(=O)N2CCN(CC(O)COc3ccccc3)CC2)cc1 (stereo not given) | – | inactive: 0.944% |
| O=C(CSc1nc2ccccc2o1)NC(=O)NC1CCCCC1 | – | inactive: 18% |
| COc1ccc2c(C)cc(SCC(=O)NCc3ccc(C)cc3)nc2c1 | inconclusive: 7.94 µM [inhibitor, partial curve, poor fit] | – |
| COc1ccc(C)cc1NC(=O)CSc1nc(=O)n(Cc2ccccn2)c2c1CCC2 | – | inactive: -9.76% |
| O=C(CCc1nc(-c2ccccn2)no1)NCc1ccc(-n2cncn2)nc1 | inconclusive: 3.55 µM [inhibitor, full curve, poor fit] | – |
| COc1ccc(/C=C(\C#N)C(=O)C(C)(C)n2cncn2)cc1 | – | inactive: -9.15% |
| CC(=O)Nc1ccc(-c2csc(-c3ccccc3C)n2)cc1 | inconclusive: 44.7 µM [inhibitor, partial curve, poor fit] | – |
| CC(=O)NC1(C(F)(F)F)C(=O)Nc2c1c(=O)[nH]c(=O)n2Cc1ccco1 (stereo not given) | inconclusive: 15.8 µM [inhibitor, single point] | – |
| Cc1ccc(NC(=O)C[n+]2ccn(C3=C([O-])c4ccccc4C3=O)c2)cc1 | – | inactive: 16.9% |
| CC(C)OC(=O)n1c(=S)oc2ccccc21 | – | inactive: 9.76% |
| CNc1nc2c(s1)C(c1cccc(F)c1)CC(=O)N2 (stereo not given) | inconclusive: 3.55 µM [inhibitor, full curve, poor fit] | – |
| c1coc(C2=NCCc3ccccc32)c1 | inconclusive: 89.1 µM [inhibitor, single point] | – |
| COc1ccc(C2C(=O)N(C3CCC(C)CC3)CC(=O)N2CCC2=CCCCC2)cc1OC (stereo not given) | – | inconclusive: -43.7% [inhibitor] |
| COc1ccc(COC(=O)C2=C(C)NC3=C(C(=O)CCC3)C2c2ccccc2Br)cc1 (stereo not given) | inconclusive: 100 µM [inhibitor, single point] | – |

Of the compounds above, these contain a furan ring, fused or not:

| SMILES | Potency | activity change, negative = inhibition |
| --- | --- | --- |
| O=C1OC(c2ccc(Br)o2)=N/C1=C/c1cc(Br)cs1 | inconclusive: 50.1 µM [inhibitor, partial curve, poor fit] | – |
| CC(=O)NC1(C(F)(F)F)C(=O)Nc2c1c(=O)[nH]c(=O)n2Cc1ccco1 (stereo not given) | inconclusive: 15.8 µM [inhibitor, single point] | – |
| c1coc(C2=NCCc3ccccc32)c1 | inconclusive: 89.1 µM [inhibitor, single point] | – |

(cont.)

| SMILES | Potency | activity change, negative = inhibition |
| --- | --- | --- |
| COCc1nnc(NC(=O)CC(c2ccccc2)c2ccccc2)s1 | inconclusive: 7.08 µM [inhibitor, full curve, poor fit] | – |
| CCOC(=O)c1ccc2ncc(C(=O)OCC)c(Nc3cc(C)ccc3OC)c2c1 | inconclusive: 100 µM [inhibitor, partial curve, poor fit] | – |
| Cc1c(CCC(=O)NCCc2ccc(F)cc2)c(=O)oc2c(C)c(O)ccc12 | inconclusive: 0.398 µM [inhibitor, full curve, poor fit] | – |
| O=c1[nH]nc(-c2ccco2)c2c1Nc1nnnn1C2c1ccc(Cl)cc1Cl (stereo not given) | inconclusive: 31.6 µM [inhibitor, partial curve, poor fit] | – |
| Cc1cc(C)c2[nH]c(CSc3nnc(-c4cccc(F)c4)n3C)cc(=O)c2c1 | inconclusive: 0.891 µM [inhibitor, full curve] | – |
| CN(CCCNC(=O)c1cccnc1)CC(F)(F)F | – | inactive: 15.7% |
| O=C(Cc1ccc([N+](=O)[O-])cc1)N/N=C/c1ccc([N+](=O)[O-])o1 | inconclusive: 7.08 µM [inhibitor, full curve, poor fit] | – |
| CC(C)[C@H](NC(=O)C12CC3CC(CC(C3)C1)C2)C(=O)O | active: 56.2 µM | – |
| CCc1ccc(C(=O)N(Cc2ccco2)C2CC2)s1 | inconclusive: 35.5 µM [inhibitor, partial curve, poor fit] | – |
| O=C(NC(=O)c1ccccc1O)c1ccc(C(F)(F)F)cc1 | – | inactive: 66.3% |
| COc1ccccc1-n1c(-c2ccc(Cl)cc2)c[nH]c1=S | inconclusive: 44.7 µM [inhibitor, partial curve, poor fit] | – |
| Cc1ccc2c(CC(=O)NCc3ccco3)coc2c1C | – | inactive: -15.3% |
| O=C(NC(=S)NNC(=O)c1cccs1)c1ccccc1 | inconclusive: 50.1 µM [inhibitor, partial curve, poor fit] | – |
| O=[N+]([O-])c1ccc(S(=O)(=O)NNC(=S)NCCc2ccccc2)cc1 | inconclusive: 8.91 µM [inhibitor, partial curve, poor fit] | – |
| O=C(NCc1ccccc1)c1ncn(Cc2ccccc2)c1C(=O)NCc1ccccc1 | – | inactive: 5.97% |
| O=C(c1ccc(Cl)cc1)N1CC2(CCCN(C3CCCCC3)C2)Cc2ccccc21 (stereo not given) | inconclusive: 44.7 µM [inhibitor, partial curve] | – |
| CCN1CCc2c(C#N)c(N3CCOCC3)nc(NCCO)c2C1 | inconclusive: 35.5 µM [inhibitor, single point] | – |
| S=c1[nH]nc(-c2ccccn2)n1/N=C/c1cccc(Cl)c1 | inconclusive: 39.8 µM [inhibitor, partial curve, poor fit] | – |
| CC[n+]1c(/C=C/c2ccc(OC(C)=O)c(OC)c2)ccc2ccccc21 | inconclusive: 44.7 µM [inhibitor, partial curve, poor fit] | – |
| CCC(=O)Oc1ccc2ccccc2c1CNC(=O)c1ccccc1 | – | inactive: -2.41% |
| CC1(C)CC(=O)C2=C(C1)c1c(ccc3ccccc13)NC2c1ccc(Br)o1 (stereo not given) | inconclusive: 44.7 µM [inhibitor, partial curve, poor fit] | – |
| COc1ccc(NC(=O)Cn2nc(C)c3nn(-c4ccc(Cl)cc4)c(C)c3c2=O)cc1 | – | inactive: -32.4% |

| SMILES | Potency | activity change, negative = inhibition |
| --- | --- | --- |
| CC(=O)c1ccc(OCC(=O)N(C)C2CCS(=O)(=O)C2)cc1 (stereo not given) | inconclusive: 79.4 µM [inhibitor, single point] | – |
| COc1cccc(NC(=O)CCCN(c2ccc(Cl)cc2)S(C)(=O)=O)c1 | inconclusive: 31.6 µM [inhibitor, partial curve, poor fit] | – |
| CC1CCN(c2oc(/C=C/c3ccc(F)cc3)nc2C#N)CC1 | inconclusive: 112 µM [inhibitor, partial curve, poor fit] | – |
| O=c1c(OCc2ccccc2)cccn1Cc1ccccc1 | inconclusive: 35.5 µM [inhibitor, partial curve, poor fit] | – |
| O=C(NC(=S)Nc1ccccc1N1CCOCC1)c1ccccc1F | inconclusive: 44.7 µM [inhibitor, partial curve, poor fit] | – |
| CC(C)C(c1nnnn1Cc1ccccc1)N(CCCO)Cc1cc2cc3c(cc2[nH]c1=O)OCO3 (stereo not given) | inconclusive: 100 µM [inhibitor, single point] | – |
| CCCOc1ccc(C(=O)Nc2nc(C)c(Cc3ccc4c(c3)OCO4)s2)cc1 | inconclusive: 44.7 µM [inhibitor, partial curve, poor fit] | – |
| O=C(NCc1ccc2c(c1)OCO2)c1ccc(-c2ccc(N3CCSCC3)nc2)cc1 | inconclusive: 39.8 µM [inhibitor, partial curve, poor fit] | – |
| CCCOC(=O)c1ccc(Cn2nnc3sc4c(c3c2=O)CCC(C)C4)cc1 (stereo not given) | inconclusive: 112 µM [inhibitor, partial curve, poor fit] | – |
| CCOc1ccc(NC(=O)c2cc(S(=O)(=O)N3CCOCC3)ccc2F)cc1 | inconclusive: 10 µM [inhibitor, full curve, poor fit] | – |
| O=[N+]([O-])c1cc(S(=O)(=O)Nc2ccccc2NS(=O)(=O)c2cccs2)ccc1Cl | inconclusive: 0.891 µM [inhibitor, full curve, poor fit] | – |
| O=C(NCCN1CCOCC1)C1CCCN(S(=O)(=O)c2ccc(F)cc2)C1 (stereo not given) | inconclusive: 79.4 µM [inhibitor, single point] | – |
| CN1CCCN(S(=O)(=O)c2cccc(Br)c2)c2ccccc21 | inconclusive: 35.5 µM [inhibitor, full curve] | – |
| CC(C)CC(=O)N1CCN(CC2CC=CCC2)CC1 (stereo not given) | inconclusive: 1.41 µM [inhibitor, full curve, poor fit] | – |
| Cc1cc(/C=C/C(=O)c2cccs2)cc(C)c1O | inconclusive: 89.1 µM [inhibitor, partial curve, poor fit] | – |
| Cc1ccc(-c2cn(-c3ccccc3F)c(=S)[nH]2)cc1 | inconclusive: 7.94 µM [inhibitor, partial curve, poor fit] | – |
| CCc1c(C)sc2c1CCN(C(=O)Nc1ccc(F)c(Cl)c1)C2c1ccc(F)cc1 (stereo not given) | – | inactive: -14.3% |
| COc1ccccc1NC(=O)C1=C(C)Nc2nc(SCc3ccccc3)nn2C1c1cccnc1 (stereo not given) | inconclusive: 50.1 µM [inhibitor, partial curve, poor fit] | – |
| Cc1ccc(/C(N)=N/OC(=O)N2c3ccccc3Sc3ccccc32)cc1 | inconclusive: 6.31 µM [inhibitor, full curve, poor fit] | – |
| COC(=O)[C@H](CCSC)NC(=O)NC1CCN(Cc2ccccc2)CC1 | – | inactive: 0% |
| Cc1ccc(-c2csc(NC(=O)CSc3nc4ccccc4c(=O)n3CCCN(C)C)n2)cc1 | inconclusive: 89.1 µM [inhibitor, partial curve, poor fit] | – |
